In the assay the target is T1, PDIA6 (ERp5), expressed as bait (UniProt Q15084).
T1 sequence: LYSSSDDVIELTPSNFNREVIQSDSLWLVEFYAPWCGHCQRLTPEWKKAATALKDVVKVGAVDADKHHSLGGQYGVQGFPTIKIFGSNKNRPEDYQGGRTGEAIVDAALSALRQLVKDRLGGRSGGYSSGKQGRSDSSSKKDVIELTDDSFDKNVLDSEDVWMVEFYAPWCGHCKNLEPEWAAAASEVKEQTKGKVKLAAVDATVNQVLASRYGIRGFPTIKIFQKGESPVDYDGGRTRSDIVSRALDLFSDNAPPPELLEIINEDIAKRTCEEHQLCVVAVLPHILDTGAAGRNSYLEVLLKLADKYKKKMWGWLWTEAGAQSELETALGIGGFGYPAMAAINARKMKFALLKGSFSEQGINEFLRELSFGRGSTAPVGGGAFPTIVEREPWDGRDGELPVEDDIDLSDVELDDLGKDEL
Kind of assay: co-IP; HEK293T co-transfected with His-tagged ORF3 and Myc-TXNDC5 (WT or AAA) or PDIs; lysates on Dynabeads Protein G pre-bound with anti-Myc mAb; Western blotting.

Results are given in words; binding and its absence hold for the method and conditions named. In cells and extracts the contact can be indirect. Binding can be weak; no strength is given.

With “human HEV-3 (Kernow-C1/p6) ORF3 protein only with His tag”, the binding entry is given as “binds”.

These data come from PMC11019958.
